Results are given in words; binding and its absence hold for the method and conditions named. Binding seen in cells or lysates may run through a third protein. Some entries that bind do so weakly or less than the wild type. For some assays here: Sequences can lack the tags named with a protein.
Tests used:
[1] = target: T1, flag-tagged METTL14 (human) (UniProt Q9HCE5); assay: co-IP; flag-tagged METTL14 and myc-tagged FOXO1 ectopically expressed in 293T cells; co-IP with anti-flag or anti-myc antibodies; lysis in RIPA buffer, immunoblot
T1 sequence: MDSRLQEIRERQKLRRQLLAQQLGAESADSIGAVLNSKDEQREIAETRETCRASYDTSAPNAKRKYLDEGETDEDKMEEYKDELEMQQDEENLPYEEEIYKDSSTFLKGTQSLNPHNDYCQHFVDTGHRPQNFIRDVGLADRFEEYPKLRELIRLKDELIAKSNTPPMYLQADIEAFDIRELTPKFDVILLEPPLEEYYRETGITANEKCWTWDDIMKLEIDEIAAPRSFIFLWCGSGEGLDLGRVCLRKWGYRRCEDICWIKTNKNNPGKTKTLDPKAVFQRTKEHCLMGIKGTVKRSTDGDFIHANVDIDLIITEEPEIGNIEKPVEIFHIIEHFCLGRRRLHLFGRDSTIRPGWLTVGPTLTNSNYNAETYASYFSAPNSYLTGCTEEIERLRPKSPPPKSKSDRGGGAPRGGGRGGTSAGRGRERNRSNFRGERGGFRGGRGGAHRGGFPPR

By UniProt entry, the sequences of proteins in these tests, tags left out.
UniProt Q12778: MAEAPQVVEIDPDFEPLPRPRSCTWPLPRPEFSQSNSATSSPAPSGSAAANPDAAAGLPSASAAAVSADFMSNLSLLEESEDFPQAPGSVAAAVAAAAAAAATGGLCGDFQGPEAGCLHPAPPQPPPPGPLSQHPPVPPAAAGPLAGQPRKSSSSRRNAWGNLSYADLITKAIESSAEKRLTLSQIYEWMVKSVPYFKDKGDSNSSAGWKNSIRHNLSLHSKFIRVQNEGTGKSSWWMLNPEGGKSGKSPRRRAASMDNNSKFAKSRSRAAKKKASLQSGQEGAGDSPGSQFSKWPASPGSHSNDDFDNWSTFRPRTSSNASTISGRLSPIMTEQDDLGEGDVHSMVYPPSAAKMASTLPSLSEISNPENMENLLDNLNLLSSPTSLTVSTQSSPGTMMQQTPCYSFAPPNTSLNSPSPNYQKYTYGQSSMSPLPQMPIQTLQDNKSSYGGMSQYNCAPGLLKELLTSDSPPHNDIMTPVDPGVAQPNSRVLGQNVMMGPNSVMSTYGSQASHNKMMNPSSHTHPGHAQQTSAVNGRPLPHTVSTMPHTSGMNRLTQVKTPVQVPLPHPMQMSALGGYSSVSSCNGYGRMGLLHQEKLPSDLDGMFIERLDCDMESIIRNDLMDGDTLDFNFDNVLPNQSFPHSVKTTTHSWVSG

[2] = target: T2, methyltransferase-like 14 (METTL14), endogenous (human (endogenous in HUVECs)) (UniProt Q9HCE5); assay: co-IP; endogenous proteins in HUVEC lysate; precipitated with anti-METTL14 or anti-FOXO1 antibodies; lysis in RIPA buffer, immunoblot
T2 sequence: T1 sequence

| binding [1] | binding [2] | Substance |
| --- | --- | --- |
| binds |  | myc-tagged FOXO1 (from UniProt Q12778 1-655) |
|  | binds | forkhead box O1 (FOXO1), endogenous (from UniProt Q12778 1-655) |
